Data as given in PubChem BioAssay AID1259254 (NCATS, 2017)

Assay: 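Genome-wide screen for genes that prevent DNA re-replication in cancer cells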 (primary screen)
System: human HCT116 colorectal cancer cells
Reagents: single siRNA against human genes
Timing: 3 days
Measured: 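Imaged Hoechst DNA stain sorts each cell into a cycle phase by DNA amount; per plate, G2 fraction set to 0% for non-targeting and 100% for GMNN siRNA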
Scale: G2 robust z-score: higher = more G2 cells, more excess DNA replication
Call rule: 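Active siRNAs have a G2 robust z of 5 or more median absolute deviations over the median, which in these data means about 38% or higher of GMNN control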
Shown is a random part of about 59,000 deposited reagents. About 1,550 of them (2.6%) were called active. 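G2 share is only a proxy for re-replication; each gene was hit by three separate siRNAs, and active genes were retested.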 The numbers tell different reagents against one gene apart. Not all columns of the deposit are shown. The record does not give: the amount of reagent.

{"gene":"OLIG1","reagent":1,"G2 robust z-score":-0.351,"Outcome":"inactive"}
{"gene":"OLIG1","reagent":2,"G2 robust z-score":-0.876,"Outcome":"inactive"}
{"gene":"OLIG1","reagent":3,"G2 robust z-score":-0.0252,"Outcome":"inactive"}
{"gene":"UBE2S","reagent":1,"G2 robust z-score":1.69,"Outcome":"inactive"}
{"gene":"UBE2S","reagent":2,"G2 robust z-score":1.42,"Outcome":"inactive"}
{"gene":"UBE2S","reagent":3,"G2 robust z-score":0.756,"Outcome":"inactive"}
{"gene":"ELOA2","reagent":1,"G2 robust z-score":0.596,"Outcome":"inactive"}
{"gene":"ELOA2","reagent":2,"G2 robust z-score":0.135,"Outcome":"inactive"}
{"gene":"ELOA2","reagent":3,"G2 robust z-score":5.33,"Outcome":"active"}
{"gene":"ATP5F1E","reagent":1,"G2 robust z-score":1.48,"Outcome":"inactive"}
{"gene":"ATP5F1E","reagent":2,"G2 robust z-score":0.0984,"Outcome":"inactive"}
{"gene":"ATP5F1E","reagent":3,"G2 robust z-score":-0.669,"Outcome":"inactive"}

Ordered by “G2 robust z-score” (descending): 2 of the entries above
{"gene":"UBE2S","reagent":1,"G2 robust z-score":1.69,"Outcome":"inactive"}
{"gene":"OLIG1","reagent":3,"G2 robust z-score":-0.0252,"Outcome":"inactive"}
